The values that follow come from PMC5432342.

Chains of the proteins cited; added tags and fusions are not shown.
UniProt P38398: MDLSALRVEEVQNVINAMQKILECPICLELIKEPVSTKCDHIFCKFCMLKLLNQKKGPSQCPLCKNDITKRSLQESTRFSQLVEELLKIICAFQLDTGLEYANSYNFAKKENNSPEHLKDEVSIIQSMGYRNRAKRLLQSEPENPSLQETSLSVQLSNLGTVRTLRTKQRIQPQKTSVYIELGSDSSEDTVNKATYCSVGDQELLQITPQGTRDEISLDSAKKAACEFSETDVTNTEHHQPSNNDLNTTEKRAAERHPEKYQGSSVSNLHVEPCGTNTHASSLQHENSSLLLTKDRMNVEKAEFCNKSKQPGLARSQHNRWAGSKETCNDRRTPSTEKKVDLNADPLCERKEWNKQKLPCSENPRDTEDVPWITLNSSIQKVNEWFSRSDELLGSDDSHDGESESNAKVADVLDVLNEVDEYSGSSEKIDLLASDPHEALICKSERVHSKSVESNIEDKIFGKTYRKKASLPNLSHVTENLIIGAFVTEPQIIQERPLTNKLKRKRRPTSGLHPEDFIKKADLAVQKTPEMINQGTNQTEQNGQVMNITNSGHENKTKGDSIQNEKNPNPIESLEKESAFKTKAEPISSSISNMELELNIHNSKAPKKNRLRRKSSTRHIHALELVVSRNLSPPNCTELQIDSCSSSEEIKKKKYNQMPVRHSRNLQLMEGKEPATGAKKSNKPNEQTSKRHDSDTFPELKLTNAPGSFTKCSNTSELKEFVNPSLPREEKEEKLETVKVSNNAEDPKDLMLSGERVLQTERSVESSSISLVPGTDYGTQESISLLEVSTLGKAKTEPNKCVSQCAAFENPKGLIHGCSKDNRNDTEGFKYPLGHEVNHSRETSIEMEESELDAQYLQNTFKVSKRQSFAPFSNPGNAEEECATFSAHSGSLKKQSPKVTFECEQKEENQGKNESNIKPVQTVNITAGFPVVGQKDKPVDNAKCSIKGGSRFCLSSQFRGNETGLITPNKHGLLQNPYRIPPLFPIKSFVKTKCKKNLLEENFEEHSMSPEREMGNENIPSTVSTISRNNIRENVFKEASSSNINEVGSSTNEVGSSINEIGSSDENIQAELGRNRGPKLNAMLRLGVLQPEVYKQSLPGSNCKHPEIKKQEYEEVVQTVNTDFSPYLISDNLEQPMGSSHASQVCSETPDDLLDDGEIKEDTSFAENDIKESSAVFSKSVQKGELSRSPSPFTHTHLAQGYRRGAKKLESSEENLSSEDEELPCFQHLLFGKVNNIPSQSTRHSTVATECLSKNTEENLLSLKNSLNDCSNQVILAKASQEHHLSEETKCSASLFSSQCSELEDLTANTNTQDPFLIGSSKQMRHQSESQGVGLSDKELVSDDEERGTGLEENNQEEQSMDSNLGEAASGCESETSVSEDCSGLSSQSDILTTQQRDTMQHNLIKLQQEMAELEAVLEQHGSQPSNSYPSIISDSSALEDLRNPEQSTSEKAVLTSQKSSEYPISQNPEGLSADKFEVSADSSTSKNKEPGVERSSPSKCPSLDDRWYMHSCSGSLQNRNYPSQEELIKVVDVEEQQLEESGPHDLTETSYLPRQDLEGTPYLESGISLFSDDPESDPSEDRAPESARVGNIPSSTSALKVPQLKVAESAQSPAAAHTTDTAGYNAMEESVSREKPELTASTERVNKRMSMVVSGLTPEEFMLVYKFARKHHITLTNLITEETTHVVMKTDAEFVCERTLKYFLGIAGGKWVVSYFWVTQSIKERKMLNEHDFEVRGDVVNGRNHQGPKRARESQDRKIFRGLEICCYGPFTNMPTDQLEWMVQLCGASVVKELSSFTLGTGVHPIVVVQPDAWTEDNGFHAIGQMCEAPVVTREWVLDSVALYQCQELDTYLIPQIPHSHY

These are yes or no findings as the source states them, for the method shown. In cells and extracts the contact can be indirect. Some binding calls cover weakened binding; strength is not graded here. Tags and fused reporters may be left off the sequences shown.

The test has as its target hBRCA1 (human) (UniProt P38398). Nature of the test: co-IP; Flag-hSTIL (or its deletion mutants) and hBRCA1 co-transfected, lysed after 48 h in 10 mM Tris pH 7.5, 150 mM NaCl, 0.5% Triton-X100; precipitated with anti-BRCA1 or anti-STIL antibody overnight at 4°C and protein A/G agarose beads; beads-only control; western blot with anti-BRCA1 and anti-STIL.

B1: Flag-hSTIL (SCL TAL1 Interrupting Locus protein) (protein, UniProt Q15468 1-1287)
chain: MEPIYPFARPQMNTRFPSSRMVPFHFPPSKCALWNPTPTGDFIYLHLSYYRNPKLVVTEKTIRLAYRHAKQNKKNSSCFLLGSLTADEDEEGVTLTVDRFDPGREVPECLEITPTASLPGDFLIPCKVHTQELCSREMIVHSVDDFSSALKALQCHICSKDSLDCGKLLSLRVHITSRESLDSVEFDLHWAAVTLANNFKCTPVKPIPIIPTALARNLSSNLNISQVQGTYKYGYLTMDETRKLLLLLESDPKVYSLPLVGIWLSGITHIYSPQVWACCLRYIFNSSVQERVFSESGNFIIVLYSMTHKEPEFYECFPCDGKIPDFRFQLLTSKETLHLFKNVEPPDKNPIRCELSAESQNAETEFFSKASKNFSIKRSSQKLSSGKMPIHDHDSGVEDEDFSPRPIPSPHPVSQKISKIQPSVPELSLVLDGNFIESNPLPTPLEMVNNENPPLINHLEHLKPLQPQLYDEKHSPEVEAGEPSLRGIPNQLNQDKPALLRHCKVRQPPAYKKGNPHTRNSIKPSSHNGPSHDIFEKLQTVSAGNVQNEEYPIRPSTLNSRQSSLAPQSQPHDFVFSPHNSGRPMELQIPTPPLPSYCSTNVCRCCQHHSHIQYSPLNSWQGANTVGSIQDVQSEALQKHSLFHPSGCPALYCNAFCSSSSPIALRPQGDMGSCSPHSNIEPSPVARPPSHMDLCNPQPCTVCMHTPKTESDNGMMGLSPDAYRFLTEQDRQLRLLQAQIQRLLEAQSLMPCSPKTTAVEDTVQAGRQMELVSVEAQSSPGLHMRKGVSIAVSTGASLFWNAAGEDQEPDSQMKQDDTKISSEDMNFSVDINNEVTSLPGSASSLKAVDIPSFEESNIAVEEEFNQPLSVSNSSLVVRKEPDVPVFFPSGQLAESVSMCLQTGPTGGASNNSETSEEPKIEHVMQPLLHQPSDNQKIYQDLLGQVNHLLNSSSKETEQPSTKAVIISHECTRTQNVYHTKKKTHHSRLVDKDCVLNATLKQLRSLGVKIDSPTKVKKNAHNVDHASVLACISPEAVISGLNCMSFANVGMSGLSPNGVDLSMEANAIALKYLNENQLSQLSVTRSNQNNCDPFSLLHINTDRSTVGLSLISPNNMSFATKKYMKRYGLLQSSDNSEDEEEPPDNADSKSEYLLNQNLRSIPEQLGGQKEPSKNDHEIINCSNCESVGTNADTPVLRNITNEVLQTKAKQQLTEKPAFLVKNLKPSPAVNLRTGKAEFTQHPEKENEGDITIFPESLQPSETLKQMNSMNSVGTFLDVKRLRQLPKLF
Regarding B1, the binding entry is recorded as “binds”.
